Data as given in PubChem BioAssay AID686937 (Drosophila RNAi Screening Center, 2013).
The screen tested about 23,000 reagents; below is an unselected part of those that have a named target and a result. 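Reduced-secretion tags in replicate 1 do not always agree with the z-scores; no criterion for assigning the tags was given.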 The numbers tell different reagents against one gene apart. A plus sign joins genes that one reagent is predicted to hit. Not given: the amount of reagent.

- Test: 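Genes in the fly needed for secretion of protein constitutively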 (primary screen)
- Cell system: Drosophila S2 cells expressing secreted horseradish peroxidase
- Knock-down reagent: long dsRNA against Drosophila genes
- Time to read-out: about 5.5 days (5 days dsRNA, then 12 h reporter induction)
- Treatment: reporter expression induced after 5 days of dsRNA, read 12 h later; inducer not stated
- Read-out: 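Chemiluminescent measurement of peroxidase in the medium 12 h after reporter induction, following 5 days of dsRNA, given as a z-score per plate; higher means more secretion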
- Scale: z-score: higher = more reporter secreted into medium

predicted target,reagent,"z-score, replicate 1","z-score, replicate 2","z-score, replicate 3","z-score, replicate 4"
CG11122,1,0.15,-0.25,,
GLaz,1,-0.19,-0.11,,
CG18095,1,0.03,-0.06,,
Pebp1,1,-0.58,-0.18,,
CG9270,1,0.42,0.35,,
spz4,1,-0.77,-0.21,,
CG13796 + CG31904,1,-0.05,0.24,,
mRpL43,1,-0.19,0.25,0.37,-0.12
mRpL43,2,-0.58,-0.12,,
inc,1,0.4,0.36,,
inc,2,0.4,0.25,0.05,0.3
Prx1,1,-0.07,0.01,,
CG16868,1,0.04,0.2,,
CG31867,1,-0.04,-0.06,,
ix,1,0.2,0.25,,
egg,1,0.31,0.11,,
egg,2,1.65,1.57,,
CG43278 (retired record),1,0.38,0.11,,
PICK1,1,0.4,0.41,,
PICK1,2,0.37,0.43,,
CG3106,1,0.49,0.51,,
CG5895,1,0.48,0.29,,
Neu2,1,0.48,0.31,,
CG43759,1,0.3,0.14,,
CG43759,2,0.22,0.35,,
abs,1,-0.6,-0.46,,
BomS6,1,-0.12,-0.37,,
PTPMT1,1,0.44,0.43,,
trbd,1,0.22,0.17,,
CG32681,1,0.15,0.54,,
CG4546,1,0.38,0.28,,
CG15676,1,-0.19,0.17,,
Oseg4,1,0.12,0.54,,
Usp16-45,1,0.29,0.31,,
Dll,1,-0.05,0.12,,
su(sable),1,0.53,0.53,,
CG3062,1,0.09,-0.37,,
CG7509,1,0.54,0.29,,
sstn,1,0.65,0.32,,
CG13258,1,-0.15,-0.14,,
CG10137,1,-0.23,-0.29,,
CG10137,2,0.04,0.12,,
Su(H),1,0.79,0.32,,
CG33287,1,0.02,-0.35,,
CG18469,1,0.29,0.36,,
CG7298,1,0.24,0.22,,
Sdb,1,0.18,-0.23,,
Sdb,2,0.32,-0.12,,
Sdb,3,0.48,0.33,,
CG3792,1,0.23,0.29,,
Set8,1,-0.22,-0.19,,
egr,1,0.18,0,,
FMRFaR,1,0.35,0.28,,
Inx7,1,0.36,0.46,,
CG16826,1,0.28,0.26,,
CysRS-m,1,0.54,0.38,,

Targets above whose target name begins with I or i (4):
predicted target,reagent,"z-score, replicate 1","z-score, replicate 2","z-score, replicate 3","z-score, replicate 4"
inc,1,0.4,0.36,,
inc,2,0.4,0.25,0.05,0.3
ix,1,0.2,0.25,,
Inx7,1,0.36,0.46,,
